Reference: PubChem BioAssay AID493246 (Drosophila RNAi Screening Center, 2011)

Test: 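Identify essential fly genes by loss of cell viability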 (primary screen)
System: Drosophila Kc and S2R+ cells
Reagents: long dsRNA against Drosophila genes
Measured: 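Raw, unnormalised count of remaining cells in each well; per-plate z-scores of cell number underlie the calls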
Direction: Kc cell number and S2R+ cell number: higher = more cells remaining
Hit rule: 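Counted as a hit if cell number falls by a z-score of at least 3 within its plate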
The screen tested about 21,000 reagents; this is an unselected part of those that have a named target and a result. Of all reagents, 429 (2%) got an active call. 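Values are raw and not normalised between plates; calls rest on per-plate z-scores that were not deposited.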 The numbers tell different reagents against one gene apart. Not given: the amount of reagent, the time to read-out.

Against nht (GeneID 34902) the deposit lists Kc cell number, rep 1 = 1.31e6; Kc cell number, rep 2 = 1.37e6; S2R+ cell number, rep 1 = 9.78e5; S2R+ cell number, rep 2 = 1.08e6; inactive. After knock-down of CG8441 (GeneID 36792), the record shows Kc cell number, rep 1 = 1.42e6; Kc cell number, rep 2 = 1.54e6; S2R+ cell number, rep 1 = 1.25e6; S2R+ cell number, rep 2 = 1.14e6; inactive. With knock-down of CG14483 (GeneID 36995), the screen gave Kc cell number, rep 1 = 1.68e6; Kc cell number, rep 2 = 1.78e6; S2R+ cell number, rep 1 = 1.18e6; S2R+ cell number, rep 2 = 1.36e6; inactive. Against cpa (GeneID 37387) the deposit lists Kc cell number, rep 1 = 1.46e6; Kc cell number, rep 2 = 1.52e6; S2R+ cell number, rep 1 = 1.14e6; S2R+ cell number, rep 2 = 1.23e6; inactive. After knock-down of Icmt (GeneID 39478) the results were Kc cell number, rep 1 = 1.31e6; Kc cell number, rep 2 = 1.35e6; S2R+ cell number, rep 1 = 1.23e6; S2R+ cell number, rep 2 = 1.30e6; inactive.

2 entries from above, set out differently.
CG8441 (GeneID 36792)
- Kc cell number, rep 1: 1.42e6
- Kc cell number, rep 2: 1.54e6
- S2R+ cell number, rep 1: 1.25e6
- S2R+ cell number, rep 2: 1.14e6
- outcome: inactive

CG14483 (GeneID 36995)
- Kc cell number, rep 1: 1.68e6
- Kc cell number, rep 2: 1.78e6
- S2R+ cell number, rep 1: 1.18e6
- S2R+ cell number, rep 2: 1.36e6
- outcome: inactive

Further reagents:
After knock-down of CG17272 (GeneID 42465), the record shows Kc cell number, rep 1 = 1.49e6; Kc cell number, rep 2 = 1.52e6; S2R+ cell number, rep 1 = 1.16e6; S2R+ cell number, rep 2 = 1.26e6; inactive. Knock-down of CG32428 (GeneID 50105) #1 resulted in: Kc cell number, rep 1 = 1.59e6; Kc cell number, rep 2 = 1.74e6; S2R+ cell number, rep 1 = 9.80e5; S2R+ cell number, rep 2 = 1.07e6; inactive. After knock-down of CG32428 (GeneID 50105) #2, the record shows Kc cell number, rep 1 = 1.31e6; Kc cell number, rep 2 = 1.57e6; S2R+ cell number, rep 1 = 1.20e6; S2R+ cell number, rep 2 = 1.32e6; inactive. Against CG5421 (GeneID 34661) the deposit lists Kc cell number, rep 1 = 1.57e6; Kc cell number, rep 2 = 1.67e6; S2R+ cell number, rep 1 = 1.35e6; S2R+ cell number, rep 2 = 1.42e6; inactive. With knock-down of CG17742 (retired record) (GeneID 38787), the screen gave Kc cell number, rep 1 = 1.17e6; Kc cell number, rep 2 = 1.20e6; S2R+ cell number, rep 1 = 6.20e5; S2R+ cell number, rep 2 = 6.22e5; active. With knock-down of CG31676 (GeneID 35351), the record shows Kc cell number, rep 1 = 1.57e6; Kc cell number, rep 2 = 1.64e6; S2R+ cell number, rep 1 = 1.24e6; S2R+ cell number, rep 2 = 4.05e5; inactive.

For PK1-R (GeneID 41713) the deposit lists Kc cell number, rep 1 = 1.25e6; Kc cell number, rep 2 = 1.32e6; S2R+ cell number, rep 1 = 1.16e6; S2R+ cell number, rep 2 = 1.28e6; inactive.
